In all, about 360,000 compounds went through this assay and about 7,500 (2.1%) were called active. Inconclusive means that the source gave no clear call. Such entries were picked first, then a sample of the others. Calls come from the whole dose curve; as a rule, active = well fitted inhibition curve with a large enough effect; inconclusive = small, poorly fitted or top-dose-only effect, or effect the other way; inactive = flat fitted curve, though single readings scatter. Where the call is inconclusive, the potency comes from a doubtful curve fit.
Test: Nrf2 qHTS screen for inhibitors; note: nearly all actives have a fitted effect of over 60% in size
Conditions: A549 ARE-Fluc reporter, luciferase luminescence, 18-24 h; series mostly up to 46 µM
In short: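 A549 ARE_Fluc cells, 5000/well, 5% FBS OPTI-MEM; compounds in dose-response, 18-24 h at 37 °C/5% CO2; CellTiter-Fluor viability read (Ex 405/Em 525), then BugLite luciferase luminescence = Nrf2 activity.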
Potency is the fitted concentration of half-maximal effect.

| Structure (SMILES) | Potency |
| --- | --- |
| O=C(CSc1nnc(-c2cccc(S(=O)(=O)N3CCOCC3)c2)n1C1CCCCCC1)NCc1ccccc1 | inconclusive: 29.1 µM [falling, single point] |
| Cc1ccc(-c2csc(/C=C3\SC(C)C(=O)N3CC(=O)Nc3ccccc3F)n2)cc1 (stereo not drawn) | inconclusive: 23.1 µM [falling, single point] |
| COCCn1c(N)c(C#N)c2nc3ccccc3nc21 | inactive |
| O=C1NC(=Nc2ccccc2Cl)S/C1=C\c1cccc([N+](=O)[O-])c1 | inactive |
| S=C(NCCN1CCOCC1)NC1CCCCC1 | inconclusive: 0.517 µM [falling, full curve, poor fit] |
| COC1=C/C(=C/c2c(N)n3nc(CC(=O)N4CCOCC4)sc3nc2=O)C=CC1=O | inconclusive: 0.731 µM [activator, partial curve, poor fit] |
| COc1cc(N)c2ncsc2c1 | inactive |
| COCCn1c(-c2ccc(SC)cc2)nc2c1c(=O)[nH]c(=O)n2CC(C)C | inactive |
| CCN(CC)c1ccc(-c2nc3cnccc3n2C)cc1 | inconclusive: 2.59 µM [activator, partial curve, poor fit] |
| CCS(=O)(=O)c1ncc(Cl)c(C(=O)N2CCN(c3ccc(OC)cc3)CC2)n1 | active: 20.6 µM |
| O=C(NC1CCCCC1)c1ccc2c(c1)OCCO2 | inconclusive: 23.1 µM [activator, partial curve] |
| CC(=O)c1cccc(-c2ccc(CN3C(CC(C)C)C(=O)N(Cc4cn(CC5CCCCC5)nn4)CCS3(=O)=O)cc2)c1 (stereo not drawn) | inconclusive: 20.6 µM [falling, single point] |
| NS(=O)(=O)c1ccc(CCNC(=O)C2CCN(c3ncnc4c3nc3n4CCCCC3)CC2)cc1 | inconclusive: 1.3 µM [falling, full curve, poor fit] |
| C#CCOCCOCCOCCNc1nc(N2CCN(C(=O)CCCCCCCCCCNC(=O)Cn3cc(C[C@@H](C)O)nn3)CC2)nc(N2CCN(C(=O)CCCCCCCCCCNC(=O)[C@@H]([C@H](C)CC)n3cc(CCCCCN)nn3)CC2)n1 | inconclusive: 16.4 µM [falling, single point] |
| CCC(CC)C(=O)Nc1nnc(S(=O)(=O)N2CCCCCC2)s1 | inconclusive: 29.1 µM [activator, single point] |
| CCn1ncc(/C=C/C(=O)Nc2c(C)nn(Cc3ccc(Cl)cc3Cl)c2C)c1C | active: 5.8 µM |
| Cc1ccc(C(C)C)c(OCc2ccc(C(=O)N/N=C/c3cccc(O)c3O)cc2)c1 | inconclusive: 6.51 µM [falling, partial curve] |
| Cc1nc(SCc2ccccc2)[nH]c(=O)c1CC(=O)OCC(C)C | inconclusive: 23.1 µM [falling, single point] |

A different layout for 2 compounds above:
Structure (SMILES)	Potency
CCN(CC)c1ccc(-c2nc3cnccc3n2C)cc1	inconclusive: 2.59 µM [activator, partial curve, poor fit]
CCS(=O)(=O)c1ncc(Cl)c(C(=O)N2CCN(c3ccc(OC)cc3)CC2)n1	active: 20.6 µM

Reference: PubChem BioAssay AID504444 (National Center for Advancing Translational Sciences (NCATS), 2011)
